PubChem BioAssay AID2685 (National Center for Advancing Translational Sciences (NCATS), 2010)
The other results are listed elsewhere or left out. These are further read-outs of the screen, such as a control signal, another cell line or another target. No call is given for them. The list favours compounds with an active or inconclusive main result. Words in brackets tell the shape of the fitted curve; partial curves, single points and poor fits give uncertain potencies. Where a SMILES comes first, the peptide text is derived from it. The star is where a group is joined. Boc = CC(C)(C)OC(=O)*; Bn = c1ccc(C*)cc1

Experiment: qHTS Assay for Lipid Storage Modulators in Drosophila S3 Cells;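 as to cell number change: cells counted by Cell Tracker Red CMTPX staining in the red channel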
Details: BODIPY lipid droplet fluorescence, 18-24 h; for cell number change: measured here: cell count max response, cells fed with added oleic acid
Procedure, shortened: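 Drosophila S3 cells got compounds at several concentrations plus oleic acid (400 uM solution). Laser-scanning cytometry with 488 nm excitation read lipid droplets at 500-530 nm and cells at 575-640 nm. Percent activity was relative to 20 uM Triacsin C.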

[1] = measured here: cell number channel AC50, cells fed with added oleic acid
[2] = measured here: lipid fluorescence (Fed channel) AC50, cells fed with added oleic acid

Row | SMILES | cell number change [%] | AC50 [1] | AC50 [2]
1 | C#CCOCCOCCOCCNc1nc(N2CCN(C(=O)CCCCCCCCCCNC(=O)[C@H](CCCN=C(N)N)n3cc(C[C@@H](C)CC)nn3)CC2)nc(N2CCN(C(=O)CCCCCCCCCCNC(=O)[C@@H]([C@H](C)CC)n3cc(CCCCCN)nn3)CC2)n1 | -57.8 | 20.6 µM [falling, partial curve] | 20.6 µM [falling, partial curve]
2 | CC(Nc1nc(-c2ccccc2)nc2ccccc12)c1ccccc1 (centres undefined) | 43 | – | –
3 | O=S(=O)(N/N=C/c1ccc(N2CCOCC2)cc1)c1ccccc1 | -19.7 | 0.00461 µM [falling, full curve, poor fit] | 0.00461 µM [falling, full curve, poor fit]
4 | O=C(CSc1ncccn1)NC(=O)NCc1ccccc1 | 2.16 | – | 6.51 µM [falling, single point]
5 | CN(C(=O)COC(=O)c1cncc(Br)c1)C1CCS(=O)(=O)C1 (centres undefined) | -13.8 | – | 0.411 µM [falling, full curve]
6 | CC(C)CC(NC(=O)C(CC(C)C)NC(=O)C(Cc1ccc(OCc2ccccc2)cc1)NC(=O)OC(C)(C)C)C(N)=O (stereo not drawn) (Boc-Tyr(Bn)-Leu-Leu-NH2; configuration not given here) | 8.59 | – | 3.66 µM [falling, single point]
7 | CCn1c(COc2ccccc2C)nnc1SCC(=O)NCc1ccccc1 | -38.9 | 4.61 µM [falling, full curve] | 2.06 µM [falling, full curve, poor fit]
8 | COc1ccccc1NC(=O)C(=O)NCC(c1ccco1)N1CCc2ccccc21 (centres undefined) | 12.3 | – | –
9 | O=C(NNC(=O)c1cccs1)c1cccnc1 | 5.65 | – | –
10 | CCCC(=O)NCc1nc2ccccc2n1CC(=O)c1ccccc1 | 22.6 | – | 29.1 µM [rising, single point]
11 | CCCn1c(SCC(=O)NC2CCCCC2)nnc1C1CC1 | -29.6 | – | 29.1 µM [falling, single point]
12 | CCCC(NC(=O)C(C)Sc1nnnn1C1CC1)c1ccccc1 (centres undefined) | -2.59 | – | 2.59 µM [falling, partial curve]
13 | CC1Cc2ccccc2N1c1ncnc(N)c1[N+](=O)[O-] (centres undefined) | -32.5 | 29.1 µM [falling, single point] | 29.1 µM [falling, single point]
14 | CCCNC(=O)C1CCCN(S(=O)(=O)c2ccc3c(c2)CC(C)N3C(=O)C2CC2)C1 (centres undefined) | 37.7 | – | 0.517 µM [rising, single point]
15 | CN1CCN(Cc2c(O)ccc3occ(C(=O)c4ccccc4)c23)CC1 | -20.9 | – | 29.1 µM [rising, single point]
16 | CSc1nc(-c2ccccc2)cc(C)c1C#N | 11.2 | – | 20.6 µM [rising, partial curve]
17 | COc1ccc(CC(=O)Nc2cc3oc4ccccc4c3cc2OC)cc1 | 18.3 | – | 6.51 µM [rising, single point]
18 | COc1ccccc1Nc1nc(N)nc(CSc2ncccn2)n1 | 8.59 | – | 1.64 µM [rising, full curve]

A few values from the list.
cell number change [%], COc1ccccc1NC(=O)C(=O)NCC(c1ccco1)N1CCc2ccccc21 (centres undefined) is entered as 12.3
cell number change [%], CN1CCN(Cc2c(O)ccc3occ(C(=O)c4ccccc4)c23)CC1 is entered as -20.9

Next part:

Row | SMILES | cell number change [%] | AC50 [1] | AC50 [2]
19 | CCc1ccc(CNC(=O)c2cc3c(C)nc4ccccc4c3o2)cc1 | 4.36 | 0.731 µM [rising, partial curve] | 0.92 µM [rising, partial curve]
20 | N=c1sccn1CC(=O)Nc1cc(Cl)ccc1[N+](=O)[O-] | 44.8 | 20.6 µM [rising, single point] | 2.31 µM [rising, single point]
21 | O=C1NCN(c2ccccc2)C12CCN(c1nnnn1-c1ccccc1)CC2 | 190 | 14.6 µM [rising, partial curve] | 4.61 µM [rising, partial curve]
22 | CC1=C(c2ccccc2)[N+](=O)C2(CCCC2)N1[O-] | -6.5 | – | 0.164 µM [falling, full curve, poor fit]
23 | COc1ccc(C2CC(c3ccccc3)=NN2C(=O)COC(=O)CNC(=O)c2ccccc2)cc1 (centres undefined) | – | – | 20.6 µM [falling, single point]
24 | Cc1cccc(N=C2NN=C(c3c(C)[nH]c4ccccc34)CS2)c1 | -14.9 | – | 16.4 µM [falling, single point]
25 | Cn1c(N)c(S(=O)(=O)N2CCN(c3ccccc3F)CC2)c(=O)n(C)c1=O | 5.43 | – | 5.62 µM [falling, single point]
26 | O=C(CCN1C(=O)c2ccccc2C1=O)C1=NN[C@@H]2C(=O)N(c3cccc(Cl)c3)C(=O)[C@H]12 | – | 0.651 µM [falling, partial curve, poor fit] | 0.58 µM [falling, partial curve, poor fit]
27 | Cc1ccc(S(=O)(=O)N2CCN(c3cccc(C)c3)CC2)cc1 | -9.62 | – | 18.4 µM [falling, single point]
28 | Cc1c(CC(=O)NCCCCCC(=O)O)c(=O)oc2c(C)c3oc4c(c3cc12)CCCC4 | 52.3 | 0.164 µM [rising, full curve, poor fit] | –
29 | COc1cc(C(=O)OC(C)C(=O)Nc2ccc3c(c2)OCO3)ccc1OCc1c(C)noc1C (centres undefined) | -14.8 | – | 1.46 µM [falling, partial curve]
30 | COc1ccc(CNC(=O)c2cc(-c3cc(C)ccc3O)n[nH]2)cc1 | 25.7 | – | 0.146 µM [rising, full curve, poor fit]
31 | COc1ccc(/C=N/n2cnnc2SCc2ccccc2)cc1 | -20.8 | – | –
32 | O=C(NCCOc1ccccc1F)C1CCC(=O)N(CCc2cccc(F)c2)C1 (centres undefined) | 23.8 | – | 0.58 µM [falling, single point]
33 | COc1ccccc1CNC(=O)c1ccc(CS(=O)(=O)c2ccccc2OC)o1 | -13.9 | – | 4.11 µM [rising, single point]
34 | C=CCOCCN(C)C1=NS(=O)(=O)c2cc([N+](=O)[O-])ccc21 | -24.5 | 0.411 µM [falling, full curve, poor fit] | 18.4 µM [falling, partial curve, poor fit]
35 | CCOc1ccccc1-n1nnnc1SCC(=O)NCc1ccco1 | -30.7 | 13 µM [falling, partial curve, poor fit] | 5.8 µM [falling, full curve]
